Record: PubChem BioAssay AID1671195 (Yale University, 2021)
The deposit covers about 22,000 reagents; shown is an unselected part. About 1,510 of them (6.9%) were called active. 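Active includes knockdowns raising or lowering LDL uptake; positive z-scores mean more uptake, negative mean less.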 Reagents against one gene are numbered here.

Purpose: 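Genes whose knockdown alters LDL uptake in liver cancer cells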 (primary screen)
System: human Huh7 hepatoma cells
Reagents: siRNA pool against human genes, 18 nM
Timing: about 2 to 2.5 days of knockdown, then 8 h LDL uptake
Challenge: DiI-labelled LDL at 30 µg/ml for 8 h, in lipoprotein-deficient serum medium
Read-out: 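Fluorescent LDL signal imaged in cells, scaled to the plate median, robust z-score for each replicate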
Direction: robust z-score: higher = more LDL uptake after knockdown
Hit rule: 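a gene counts as active if at least two replicate z-scores exceed ±2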

| target | reagent no. | robust z-score, replicate 1 | robust z-score, replicate 2 | robust z-score, replicate 3 | activity call |
| --- | --- | --- | --- | --- | --- |
| NTN3 (netrin 3) | 1 | 0.286 | 1.32 | -0.169 | inactive |
| GNPNAT1 (glucosamine-phosphate N-acetyltransferase 1) | 1 | -2.11 | 0.708 | 2.11 | inactive |
| GFAP (glial fibrillary acidic protein) | 1 | 0.175 | -0.5 | 0.98 | inactive |
| ARPIN (actin related protein 2/3 complex inhibitor) | 1 | 0.0343 | 0.283 | -0.0411 | inactive |
| MAP2K3 (mitogen-activated protein kinase kinase 3) | 1 | -0.243 | -0.944 | -0.557 | inactive |
| RRS1 (regulator of ribosome synthesis 1) | 1 | 3.27 | 1.61 | 1.02 | inactive |
| PRMT6 (protein arginine methyltransferase 6) | 1 | 0.187 | -0.597 | -0.143 | inactive |
| LOC439998 (retired record) | 1 | -0.767 | 0.769 | -0.282 | inactive |
| ZFAND4 (zinc finger AN1-type containing 4) | 1 | -0.109 | -0.234 | -0.357 | inactive |
| HSPB6 (heat shock protein family B (small) member 6) | 1 | -0.316 | -0.435 | -0.181 | inactive |
| PLXNA1 (plexin A1) | 1 | 0.151 | 0.784 | -0.0116 | inactive |
| FGF3 (fibroblast growth factor 3) | 1 | -0.982 | 0.179 | -0.313 | inactive |
| OR7G2 (olfactory receptor family 7 subfamily G member 2) | 1 | -1.3 | -1.13 | -1.28 | inactive |
| SRCAP (Snf2 related CREBBP activator protein) | 1 | 1.53 | 1.56 | 1.18 | inactive |
| FAT4 (FAT atypical cadherin 4) | 1 | 1.59 | 0.841 | 1.49 | inactive |
| FAT4 (FAT atypical cadherin 4) | 2 | 0.272 | 0.144 | 0.14 | inactive |
| PRELID1 (PRELI domain containing 1) | 1 | -1.28 | 0.648 | 1.8 | inactive |
| LOC441449 (retired record) | 1 | -0.977 | -0.96 | -1.18 | inactive |
| FEM1B (fem-1 homolog B) | 1 | -0.766 | -0.72 | -1.13 | inactive |
| LOC441912 (retired record) | 1 | 2 | 1.55 | 2.26 | active |
| C1QTNF8 (C1q and TNF related 8) | 1 | 0.486 | 0.572 | 0.735 | inactive |
| RPF1 (ribosome production factor 1 homolog) | 1 | -0.325 | -0.0964 | -0.321 | inactive |
| GRAP (GRB2 related adaptor protein) | 1 | -0.284 | 0.689 | 0.385 | inactive |
| GIMAP5 (GTPase, IMAP family member 5) | 1 | 1.72 | -1.03 | 0.625 | inactive |
| NPM1P39 (nucleophosmin 1 pseudogene 39) | 1 | 0.59 | 0.359 | 0.297 | inactive |
| DNAH9 (dynein axonemal heavy chain 9) | 1 | 0.0635 | -0.0809 | -0.347 | inactive |
| HEPACAM (hepatic and glial cell adhesion molecule) | 1 | -1.22 | -1.21 | -1.25 | inactive |
| LOC388282 | 1 | 0.65 | 0.675 | 0.527 | inactive |
| ASAP2 (ArfGAP with SH3 domain, ankyrin repeat and PH domain 2) | 1 | 0.115 | 1.54 | 1.58 | inactive |
| AEBP2 (AE binding protein 2) | 1 | 1.36 | 1.67 | 0.945 | inactive |
| CCT3 (chaperonin containing TCP1 subunit 3) | 1 | 0.00493 | 0.0711 | 0.144 | inactive |
| LRRC8E (leucine rich repeat containing 8 VRAC subunit E) | 1 | -0.228 | -0.148 | 0.0394 | inactive |
| RPL37 (ribosomal protein L37) | 1 | 0.276 | 0.231 | 0.121 | inactive |
| LOC391373 (retired record) | 1 | -0.486 | -0.956 | -1.09 | inactive |
| FAM110B (family with sequence similarity 110 member B) | 1 | -0.748 | -0.405 | -1 | inactive |
| ERI2 (ERI1 exoribonuclease family member 2) | 1 | 0.937 | 1.27 | 2.03 | inactive |
| CDK17 (cyclin dependent kinase 17) | 1 | -1.06 | -0.986 | -1.35 | inactive |
| TOB2P1 (transducer of ERBB2, 2 pseudogene 1) | 1 | -0.803 | -0.758 | -0.352 | inactive |
| P2RX2 (purinergic receptor P2X 2) | 1 | -1.19 | -1.02 | -1.47 | inactive |
| LEFTY1 (left-right determination factor 1) | 1 | 1.36 | 0.663 | 1.59 | inactive |
| FAM171A1 (family with sequence similarity 171 member A1) | 1 | 1.46 | 1.25 | 1.27 | inactive |
| UCHL3 (ubiquitin C-terminal hydrolase L3) | 1 | 0.473 | 0.855 | 0.488 | inactive |
| LOC388959 (retired record) | 1 | 1.99 | 1.15 | 1.1 | inactive |
| LOC401020 (retired record) | 1 | -0.173 | -0.376 | 0.437 | inactive |
| YY1AP1 (YY1 associated protein 1) | 1 | -0.031 | 0.0566 | -1.42 | inactive |
| LOC441370 (retired record) | 1 | 2.41 | 1.18 | 0.661 | inactive |
| LOC400988 (retired record) | 1 | -0.228 | -0.729 | -0.088 | inactive |
| CALM1 (calmodulin 1) | 1 | -0.638 | -0.987 | -0.956 | inactive |
| SLCO2A1 | 1 | -1.46 | -1.94 | -1.56 | inactive |
| TRIQK (triple QxxK/R motif containing) | 1 | 0.289 | 0.163 | -0.0671 | inactive |
| AGBL2 (AGBL carboxypeptidase 2) | 1 | -1.38 | -0.896 | -0.827 | inactive |
| PPARA (peroxisome proliferator activated receptor alpha) | 1 | 1.87 | 0.537 | 1.81 | inactive |
| LCK (LCK proto-oncogene, Src family tyrosine kinase) | 1 | -0.503 | 0.271 | 0.298 | inactive |
| NECTIN1 (nectin cell adhesion molecule 1) | 1 | 0.613 | 1.06 | -0.0224 | inactive |
| DCDC2 (doublecortin domain containing 2) | 1 | 2.46 | 1.88 | -1.28 | inactive |
| WDR38 (WD repeat domain 38) | 1 | -0.614 | -0.0778 | -0.586 | inactive |
| OCM2 (oncomodulin 2) | 1 | -0.17 | 0.172 | 0.358 | inactive |
| JAM3 (junctional adhesion molecule 3) | 1 | -0.902 | -0.458 | -0.761 | inactive |
| DPYSL3 (dihydropyrimidinase like 3) | 1 | -0.264 | -0.555 | -0.502 | inactive |
| KIF3C (kinesin family member 3C) | 1 | 1.16 | 0.29 | -0.737 | inactive |
| GPR180 (G protein-coupled receptor 180) | 1 | 3.12 | 2.59 | 1.9 | active |
| CES3 (carboxylesterase 3) | 1 | 1.22 | 1.53 | 1.39 | inactive |
| TRIM54 (tripartite motif containing 54) | 1 | -0.706 | -1.04 | -1.03 | inactive |
| TAS2R14 (taste 2 receptor member 14) | 1 | -0.58 | -0.621 | -1.2 | inactive |
| LOC391555 (retired record) | 1 | 0.469 | 0.456 | 0.0369 | inactive |
| PARP3 (poly(ADP-ribose) polymerase family member 3) | 1 | 0.212 | 0.349 | 0.928 | inactive |
| OR2T27 (olfactory receptor family 2 subfamily T member 27) | 1 | -0.0125 | 0.81 | 0.369 | inactive |
| EIF3K (eukaryotic translation initiation factor 3 subunit K) | 1 | 2.13 | -0.138 | 1.26 | inactive |

Entries above called active, once more:
| target | reagent no. | robust z-score, replicate 1 | robust z-score, replicate 2 | robust z-score, replicate 3 | activity call |
| --- | --- | --- | --- | --- | --- |
| LOC441912 (retired record) | 1 | 2 | 1.55 | 2.26 | active |
| GPR180 (G protein-coupled receptor 180) | 1 | 3.12 | 2.59 | 1.9 | active |
